Structures can show the parent of a compound that is named as a salt. The list shows a part of the results. The calls rarely recur for the same compound in another form.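 Kinases, fused to nanoluciferase, were expressed in K562 cells; luminescence was measured every 4 h from 2 to 18 h as percent of control (DMSO = 100%, positive control = 0%). A time point is decreased if signal falls significantly (2 sigma). Hits were called by the authors by a rule that is not shown; the count of time points alone does not decide it.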
Columns and labels:
Test in all cases: kinase-Nluc reporter destabilization hit call (1 = scored as downregulated) (binary); higher = compound decreases kinase abundance
Settings in all cases: K562; 2-18 h
[1] = biological target: EGFR (UniProt P00533)
[2] = biological target: EGFR_G719S (UniProt P00533)
[3] = biological target: EGFR_G719S_T790M (UniProt P00533)
[4] = biological target: EGFR_L718V (UniProt P00533)
[5] = biological target: EGFR_L858R (UniProt P00533)
[6] = biological target: EGFR_L861Q (UniProt P00533)
[7] = biological target: EGFR_T790M (UniProt P00533)
[8] = biological target: EPHA2 (UniProt P29317)
[9] = biological target: ERBB3 (UniProt P21860)
[10] = biological target: ERBB4_R711C (clone: ERBB4_mut) (UniProt Q15303)
[11] = biological target: ERN1 (UniProt O75460)
[12] = biological target: FGFR1 (UniProt P11362)
[13] = biological target: FGFR2 (UniProt P21802)
[14] = biological target: FGFR3 (UniProt P22607)
[15] = biological target: FGR (UniProt P09769)
[16] = biological target: FLT3 (UniProt P36888)
[17] = biological target: FYN (UniProt P06241)
[18] = biological target: GSK3A (UniProt P49840)
[19] = biological target: HER2 (UniProt P04626)
[20] = biological target: INSRR (UniProt P14616)

The chains behind the UniProt entries cited, without tags or fusion partners. Where a name states a change or a piece, a line headed by the entry shows the natural chain unless it says otherwise.
UniProt P29317, whole entry: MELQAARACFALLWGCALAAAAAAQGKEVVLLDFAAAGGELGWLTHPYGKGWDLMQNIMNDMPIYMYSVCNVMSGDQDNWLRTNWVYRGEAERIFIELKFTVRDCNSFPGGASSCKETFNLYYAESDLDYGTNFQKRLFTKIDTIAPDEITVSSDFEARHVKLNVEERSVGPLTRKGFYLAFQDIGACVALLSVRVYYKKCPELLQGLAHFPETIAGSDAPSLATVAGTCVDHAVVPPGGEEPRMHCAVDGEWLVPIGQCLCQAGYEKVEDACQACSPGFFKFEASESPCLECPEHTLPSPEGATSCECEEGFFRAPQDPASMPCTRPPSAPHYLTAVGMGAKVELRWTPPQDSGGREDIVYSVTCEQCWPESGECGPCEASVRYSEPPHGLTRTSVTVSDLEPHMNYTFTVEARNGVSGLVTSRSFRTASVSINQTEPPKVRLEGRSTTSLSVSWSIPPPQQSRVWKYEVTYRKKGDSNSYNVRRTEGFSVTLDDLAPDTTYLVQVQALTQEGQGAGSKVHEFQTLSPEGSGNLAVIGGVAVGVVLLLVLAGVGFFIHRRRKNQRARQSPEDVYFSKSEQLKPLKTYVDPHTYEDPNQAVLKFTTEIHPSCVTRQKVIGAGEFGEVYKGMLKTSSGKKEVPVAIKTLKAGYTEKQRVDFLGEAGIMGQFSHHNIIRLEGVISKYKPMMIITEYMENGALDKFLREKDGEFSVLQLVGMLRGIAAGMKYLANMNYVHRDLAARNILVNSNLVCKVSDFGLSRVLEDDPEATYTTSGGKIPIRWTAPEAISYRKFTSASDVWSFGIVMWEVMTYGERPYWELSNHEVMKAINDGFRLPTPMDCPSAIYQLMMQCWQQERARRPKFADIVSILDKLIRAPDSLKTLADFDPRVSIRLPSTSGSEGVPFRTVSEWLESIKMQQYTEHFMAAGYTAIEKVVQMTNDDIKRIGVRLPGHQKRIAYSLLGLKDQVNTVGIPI
UniProt P21860, whole entry: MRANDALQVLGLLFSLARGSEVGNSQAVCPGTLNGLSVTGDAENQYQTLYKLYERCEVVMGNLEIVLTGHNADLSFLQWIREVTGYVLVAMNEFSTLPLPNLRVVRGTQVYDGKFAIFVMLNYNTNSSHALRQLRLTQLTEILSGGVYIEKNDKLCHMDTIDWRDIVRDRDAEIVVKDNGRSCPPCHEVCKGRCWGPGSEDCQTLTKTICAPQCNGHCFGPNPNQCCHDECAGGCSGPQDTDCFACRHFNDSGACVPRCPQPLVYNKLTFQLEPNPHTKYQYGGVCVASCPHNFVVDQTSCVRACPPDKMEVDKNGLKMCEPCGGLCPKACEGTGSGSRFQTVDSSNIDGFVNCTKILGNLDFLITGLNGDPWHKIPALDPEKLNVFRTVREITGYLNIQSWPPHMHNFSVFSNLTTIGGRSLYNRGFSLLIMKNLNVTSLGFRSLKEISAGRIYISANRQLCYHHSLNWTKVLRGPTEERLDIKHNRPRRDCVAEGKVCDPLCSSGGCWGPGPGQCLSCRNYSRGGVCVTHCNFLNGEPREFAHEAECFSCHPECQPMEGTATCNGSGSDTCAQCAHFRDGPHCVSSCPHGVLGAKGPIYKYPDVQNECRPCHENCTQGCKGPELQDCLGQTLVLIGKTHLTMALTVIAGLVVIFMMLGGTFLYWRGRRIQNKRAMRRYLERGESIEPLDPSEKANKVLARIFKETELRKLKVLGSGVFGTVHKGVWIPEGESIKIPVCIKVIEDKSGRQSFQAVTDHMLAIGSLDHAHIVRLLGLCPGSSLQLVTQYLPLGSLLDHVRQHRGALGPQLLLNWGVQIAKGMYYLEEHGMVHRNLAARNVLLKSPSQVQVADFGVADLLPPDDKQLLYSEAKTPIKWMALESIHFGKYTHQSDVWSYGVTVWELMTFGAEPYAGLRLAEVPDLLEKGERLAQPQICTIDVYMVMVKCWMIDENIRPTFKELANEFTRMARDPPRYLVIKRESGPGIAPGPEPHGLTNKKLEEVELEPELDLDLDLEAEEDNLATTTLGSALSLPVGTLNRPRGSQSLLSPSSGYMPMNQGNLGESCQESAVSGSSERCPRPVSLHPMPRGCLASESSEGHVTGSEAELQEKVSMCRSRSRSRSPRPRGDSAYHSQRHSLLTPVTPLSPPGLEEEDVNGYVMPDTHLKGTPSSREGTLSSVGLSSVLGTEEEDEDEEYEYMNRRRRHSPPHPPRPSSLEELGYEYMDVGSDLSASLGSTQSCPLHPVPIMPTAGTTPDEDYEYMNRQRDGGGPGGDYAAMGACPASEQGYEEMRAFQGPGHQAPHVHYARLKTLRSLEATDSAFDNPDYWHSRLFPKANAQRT
UniProt Q15303, whole entry R711C: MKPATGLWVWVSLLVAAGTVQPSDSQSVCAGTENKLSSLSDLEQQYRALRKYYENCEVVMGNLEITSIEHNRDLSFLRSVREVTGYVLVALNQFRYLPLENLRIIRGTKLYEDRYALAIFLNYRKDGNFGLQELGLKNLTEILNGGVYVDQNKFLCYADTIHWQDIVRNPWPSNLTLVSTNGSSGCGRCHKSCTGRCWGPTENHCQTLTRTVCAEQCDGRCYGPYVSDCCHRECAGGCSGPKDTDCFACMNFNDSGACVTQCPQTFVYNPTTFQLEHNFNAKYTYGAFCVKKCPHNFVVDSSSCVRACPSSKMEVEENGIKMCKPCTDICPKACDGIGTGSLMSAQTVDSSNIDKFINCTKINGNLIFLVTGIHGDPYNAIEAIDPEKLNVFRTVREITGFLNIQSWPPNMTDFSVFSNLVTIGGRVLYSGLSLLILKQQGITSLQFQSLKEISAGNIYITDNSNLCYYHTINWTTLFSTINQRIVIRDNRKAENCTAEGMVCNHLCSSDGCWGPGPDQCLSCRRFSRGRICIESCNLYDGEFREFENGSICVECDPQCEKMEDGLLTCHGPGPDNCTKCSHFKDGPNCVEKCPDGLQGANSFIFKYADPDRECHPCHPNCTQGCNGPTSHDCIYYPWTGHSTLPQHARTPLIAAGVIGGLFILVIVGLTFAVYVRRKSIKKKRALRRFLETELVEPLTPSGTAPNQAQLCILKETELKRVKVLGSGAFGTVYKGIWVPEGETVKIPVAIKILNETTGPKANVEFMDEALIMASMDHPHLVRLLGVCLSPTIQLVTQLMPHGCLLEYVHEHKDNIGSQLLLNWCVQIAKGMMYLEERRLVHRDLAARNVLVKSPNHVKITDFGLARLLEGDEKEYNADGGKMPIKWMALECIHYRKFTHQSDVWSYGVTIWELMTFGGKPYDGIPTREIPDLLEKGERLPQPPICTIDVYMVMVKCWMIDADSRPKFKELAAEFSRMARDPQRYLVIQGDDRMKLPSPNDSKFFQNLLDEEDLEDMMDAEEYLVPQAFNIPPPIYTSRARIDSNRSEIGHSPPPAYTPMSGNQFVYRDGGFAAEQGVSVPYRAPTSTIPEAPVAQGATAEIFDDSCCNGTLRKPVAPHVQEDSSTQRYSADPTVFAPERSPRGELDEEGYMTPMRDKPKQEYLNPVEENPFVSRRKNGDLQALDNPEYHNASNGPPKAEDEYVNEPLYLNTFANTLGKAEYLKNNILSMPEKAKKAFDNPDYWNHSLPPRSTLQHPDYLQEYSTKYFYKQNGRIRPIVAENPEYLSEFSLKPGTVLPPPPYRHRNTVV
UniProt O75460: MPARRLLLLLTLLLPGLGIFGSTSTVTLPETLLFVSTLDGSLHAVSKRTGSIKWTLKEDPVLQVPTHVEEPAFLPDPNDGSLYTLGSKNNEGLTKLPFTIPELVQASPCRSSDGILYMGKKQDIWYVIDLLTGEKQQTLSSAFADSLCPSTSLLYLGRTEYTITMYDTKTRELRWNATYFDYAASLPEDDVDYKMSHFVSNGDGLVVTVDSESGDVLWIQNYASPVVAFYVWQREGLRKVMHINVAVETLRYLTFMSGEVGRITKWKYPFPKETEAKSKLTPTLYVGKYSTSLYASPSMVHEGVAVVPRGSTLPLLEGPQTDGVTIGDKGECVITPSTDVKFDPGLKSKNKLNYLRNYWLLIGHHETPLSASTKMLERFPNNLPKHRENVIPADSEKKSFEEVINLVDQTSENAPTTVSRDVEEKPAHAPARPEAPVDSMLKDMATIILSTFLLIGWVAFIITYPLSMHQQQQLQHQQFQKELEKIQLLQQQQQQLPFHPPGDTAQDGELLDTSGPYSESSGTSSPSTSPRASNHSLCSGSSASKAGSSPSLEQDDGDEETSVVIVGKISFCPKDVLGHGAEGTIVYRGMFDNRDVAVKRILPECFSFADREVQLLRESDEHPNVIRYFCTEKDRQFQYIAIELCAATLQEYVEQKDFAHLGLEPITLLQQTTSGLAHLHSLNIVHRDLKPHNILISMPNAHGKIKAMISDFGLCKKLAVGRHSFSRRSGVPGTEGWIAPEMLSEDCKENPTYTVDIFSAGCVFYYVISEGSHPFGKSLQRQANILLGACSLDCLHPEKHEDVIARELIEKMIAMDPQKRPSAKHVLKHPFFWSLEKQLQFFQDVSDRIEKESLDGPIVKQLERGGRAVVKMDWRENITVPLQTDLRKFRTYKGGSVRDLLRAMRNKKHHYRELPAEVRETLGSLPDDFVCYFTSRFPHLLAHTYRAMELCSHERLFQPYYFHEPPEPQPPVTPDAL
UniProt P11362, whole entry, looked up: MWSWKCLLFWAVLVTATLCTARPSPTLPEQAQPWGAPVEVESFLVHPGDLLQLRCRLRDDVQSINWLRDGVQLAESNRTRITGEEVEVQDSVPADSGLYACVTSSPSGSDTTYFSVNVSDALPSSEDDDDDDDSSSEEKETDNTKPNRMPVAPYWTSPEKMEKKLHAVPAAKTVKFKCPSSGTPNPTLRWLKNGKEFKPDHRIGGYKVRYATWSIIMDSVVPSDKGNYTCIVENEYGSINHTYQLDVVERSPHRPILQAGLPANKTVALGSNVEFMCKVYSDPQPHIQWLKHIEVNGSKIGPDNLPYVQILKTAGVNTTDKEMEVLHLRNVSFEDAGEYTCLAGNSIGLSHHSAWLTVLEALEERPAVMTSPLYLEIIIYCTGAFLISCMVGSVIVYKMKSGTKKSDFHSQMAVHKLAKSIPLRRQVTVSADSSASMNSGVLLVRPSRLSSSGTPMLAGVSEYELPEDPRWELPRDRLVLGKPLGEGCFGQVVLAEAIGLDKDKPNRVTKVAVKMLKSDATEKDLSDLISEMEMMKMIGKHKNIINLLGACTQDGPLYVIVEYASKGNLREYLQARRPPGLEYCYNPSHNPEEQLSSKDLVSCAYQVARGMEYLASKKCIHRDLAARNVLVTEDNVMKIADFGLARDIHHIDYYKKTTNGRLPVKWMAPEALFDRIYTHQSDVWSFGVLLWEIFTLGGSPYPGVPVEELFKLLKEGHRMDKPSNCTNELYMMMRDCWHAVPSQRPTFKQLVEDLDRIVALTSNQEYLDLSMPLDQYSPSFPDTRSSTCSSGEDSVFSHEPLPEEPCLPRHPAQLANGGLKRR
UniProt P06241, whole entry, looked up: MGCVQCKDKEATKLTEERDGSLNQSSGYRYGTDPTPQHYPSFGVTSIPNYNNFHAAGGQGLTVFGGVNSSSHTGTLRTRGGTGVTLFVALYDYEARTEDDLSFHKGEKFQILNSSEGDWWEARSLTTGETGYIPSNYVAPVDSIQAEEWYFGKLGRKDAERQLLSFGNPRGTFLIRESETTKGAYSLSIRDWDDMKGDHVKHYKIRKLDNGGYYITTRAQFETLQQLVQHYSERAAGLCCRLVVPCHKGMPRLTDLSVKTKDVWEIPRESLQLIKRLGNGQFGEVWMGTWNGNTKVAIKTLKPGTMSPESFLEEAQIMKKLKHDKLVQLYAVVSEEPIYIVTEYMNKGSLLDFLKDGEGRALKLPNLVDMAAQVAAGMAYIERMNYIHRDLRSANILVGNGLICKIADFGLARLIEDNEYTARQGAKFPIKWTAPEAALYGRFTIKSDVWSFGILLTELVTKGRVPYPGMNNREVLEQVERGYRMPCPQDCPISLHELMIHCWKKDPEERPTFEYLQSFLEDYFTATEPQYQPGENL
UniProt P49840: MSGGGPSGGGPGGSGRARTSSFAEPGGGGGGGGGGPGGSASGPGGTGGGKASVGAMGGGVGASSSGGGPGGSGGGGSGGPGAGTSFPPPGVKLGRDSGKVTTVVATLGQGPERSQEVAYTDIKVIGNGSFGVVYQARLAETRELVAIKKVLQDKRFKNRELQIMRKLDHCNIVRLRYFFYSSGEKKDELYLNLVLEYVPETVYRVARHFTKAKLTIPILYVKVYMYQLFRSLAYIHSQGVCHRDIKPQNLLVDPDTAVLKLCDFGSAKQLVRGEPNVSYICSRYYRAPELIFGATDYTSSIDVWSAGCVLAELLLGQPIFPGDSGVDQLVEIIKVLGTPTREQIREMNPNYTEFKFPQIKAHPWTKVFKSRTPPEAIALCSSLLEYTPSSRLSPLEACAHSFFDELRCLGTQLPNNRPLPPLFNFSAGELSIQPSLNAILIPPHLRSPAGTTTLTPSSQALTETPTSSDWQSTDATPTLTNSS

Compound | kinase-Nluc reporter destabilization hit call [1] | kinase-Nluc reporter destabilization hit call [2] | kinase-Nluc reporter destabilization hit call [3] | kinase-Nluc reporter destabilization hit call [4] | kinase-Nluc reporter destabilization hit call [5] | kinase-Nluc reporter destabilization hit call [6] | kinase-Nluc reporter destabilization hit call [7] | kinase-Nluc reporter destabilization hit call [8] | kinase-Nluc reporter destabilization hit call [9] | kinase-Nluc reporter destabilization hit call [10] | kinase-Nluc reporter destabilization hit call [11] | kinase-Nluc reporter destabilization hit call [12] | kinase-Nluc reporter destabilization hit call [13] | kinase-Nluc reporter destabilization hit call [14] | kinase-Nluc reporter destabilization hit call [15] | kinase-Nluc reporter destabilization hit call [16] | kinase-Nluc reporter destabilization hit call [17] | kinase-Nluc reporter destabilization hit call [18] | kinase-Nluc reporter destabilization hit call [19] | kinase-Nluc reporter destabilization hit call [20]
CS(=O)(=O)c1ccc(-c2cnc(N)c(-c3ccc(C(F)(F)F)nc3)c2)cc1 (10 µM) | inactive: 0 | inactive: 0 | inactive: 0 | inactive: 0 | inactive: 0 | inactive: 0 | inactive: 0 | inactive: 0 | inactive: 0 | inactive: 0 | inactive: 0 | inactive: 0 | inactive: 0 | inactive: 0 | inactive: 0 | inactive: 0 | inactive: 0 | inactive: 0 | inactive: 0 | inactive: 0
N#Cc1ccnc(Nc2cc(C3CCN(C4COC4)CC3)cc(N3CCC(F)(F)C3)n2)c1 (2.5 µM) | inactive: 0 | inactive: 0 | inactive: 0 | inactive: 0 | inactive: 0 | inactive: 0 | inactive: 0 | inactive: 0 | inactive: 0 | inactive: 0 | inactive: 0 | inactive: 0 | inactive: 0 | inactive: 0 | inactive: 0 | inactive: 0 | inactive: 0 | inactive: 0 | inactive: 0 | inactive: 0
c1cc(NC2CCNCC2)nc(-c2cnc3ccccn23)c1 [IRAK inhibitor 1] (10 µM) | inactive: 0 | inactive: 0 | inactive: 0 | inactive: 0 | inactive: 0 | inactive: 0 | inactive: 0 | inactive: 0 | inactive: 0 | inactive: 0 | inactive: 0 | inactive: 0 | inactive: 0 | inactive: 0 | inactive: 0 | inactive: 0 | inactive: 0 | inactive: 0 | inactive: 0 | inactive: 0
CCCCCCCC/C=C\CCCCCCCCCCCC(=O)O [Erucic acid] (10 µM) | inactive: 0 | inactive: 0 | inactive: 0 | inactive: 0 | inactive: 0 | inactive: 0 | inactive: 0 | inactive: 0 | inactive: 0 | inactive: 0 | inactive: 0 | inactive: 0 | inactive: 0 | inactive: 0 | inactive: 0 | inactive: 0 | inactive: 0 | inactive: 0 | inactive: 0 | inactive: 0
CCCCCCCCCCCCCCCCOP(=O)([O-])OCC[N+](C)(C)C [Miltefosine] (10 µM) | inactive: 0 | inactive: 0 | inactive: 0 | inactive: 0 | inactive: 0 | inactive: 0 | inactive: 0 | inactive: 0 | inactive: 0 | inactive: 0 | inactive: 0 | inactive: 0 | inactive: 0 | inactive: 0 | inactive: 0 | inactive: 0 | inactive: 0 | inactive: 0 | inactive: 0 | inactive: 0
O=c1[nH]c(C2CCCN2)nc2c1oc1ccc(Cl)cc12 (stereo not given) [XL413 (hydrochloride)] (10 µM) | inactive: 0 | inactive: 0 | inactive: 0 | inactive: 0 | inactive: 0 | inactive: 0 | inactive: 0 | inactive: 0 | inactive: 0 | inactive: 0 | inactive: 0 | inactive: 0 | inactive: 0 | inactive: 0 | inactive: 0 | inactive: 0 | inactive: 0 | inactive: 0 | inactive: 0 | inactive: 0
COc1ccc(N=Nc2c(N)n[nH]c2N)cc1 (10 µM) | inactive: 0 | inactive: 0 | inactive: 0 | inactive: 0 | inactive: 0 | inactive: 0 | inactive: 0 | inactive: 0 | inactive: 0 | inactive: 0 | inactive: 0 | inactive: 0 | inactive: 0 | inactive: 0 | inactive: 0 | inactive: 0 | inactive: 0 | inactive: 0 | inactive: 0 | inactive: 0
CC(C)=CC(=O)O[C@H]1Cc2cc3ccc(=O)oc3cc2OC1(C)C [Decursin] (10 µM) | inactive: 0 | inactive: 0 | inactive: 0 | inactive: 0 | inactive: 0 | inactive: 0 | inactive: 0 | inactive: 0 | inactive: 0 | inactive: 0 | inactive: 0 | inactive: 0 | inactive: 0 | inactive: 0 | inactive: 0 | inactive: 0 | inactive: 0 | inactive: 0 | inactive: 0 | inactive: 0
C=CC(=O)Nc1cccc(CNc2nc(Nc3ccc(N4CCN(C)CC4)cc3OC)ncc2Cl)c1 (10 µM) | inactive: 0 | inactive: 0 | inactive: 0 | inactive: 0 | inactive: 0 | inactive: 0 | inactive: 0 | inactive: 0 | inactive: 0 | inactive: 0 | inactive: 0 | inactive: 0 | inactive: 0 | inactive: 0 | inactive: 0 | inactive: 0 | inactive: 0 | inactive: 0 | inactive: 0 | inactive: 0
O=[N+]([O-])c1ccc(Nc2nc(N3CCOCC3)nc(N3CCOCC3)n2)cc1 (10 µM) | inactive: 0 | inactive: 0 | inactive: 0 | inactive: 0 | inactive: 0 | inactive: 0 | inactive: 0 | inactive: 0 | inactive: 0 | inactive: 0 | inactive: 0 | inactive: 0 | inactive: 0 | inactive: 0 | inactive: 0 | inactive: 0 | inactive: 0 | inactive: 0 | inactive: 0 | inactive: 0
CC/C(=N\NC(=O)c1ccnc(NCCCN2CCOCC2)c1)c1ccc(Cl)cc1O (2.5 µM) | inactive: 0 | inactive: 0 | inactive: 0 | inactive: 0 | inactive: 0 | inactive: 0 | inactive: 0 | inactive: 0 | inactive: 0 | inactive: 0 | inactive: 0 | inactive: 0 | inactive: 0 | inactive: 0 | inactive: 0 | inactive: 0 | inactive: 0 | inactive: 0 | inactive: 0 | inactive: 0
C=CC(=O)Nc1cc(-n2c(=O)ccc3cnc4ccc(-c5ccc(NS(C)(=O)=O)cc5)cc4c32)ccc1C (10 µM) | inactive: 0 | inactive: 0 | inactive: 0 | inactive: 0 | inactive: 0 | inactive: 0 | inactive: 0 | inactive: 0 | inactive: 0 | inactive: 0 | inactive: 0 | inactive: 0 | inactive: 0 | inactive: 0 | inactive: 0 | inactive: 0 | inactive: 0 | inactive: 0 | inactive: 0 | inactive: 0
CNc1nc(Nc2ccc(C(=O)N3CCOCC3)cc2OC)ncc1Cl (2.5 µM) | inactive: 0 | inactive: 0 | inactive: 0 | inactive: 0 | inactive: 0 | inactive: 0 | inactive: 0 | inactive: 0 | inactive: 0 | inactive: 0 | inactive: 0 | inactive: 0 | inactive: 0 | inactive: 0 | inactive: 0 | inactive: 0 | inactive: 0 | inactive: 0 | inactive: 0 | inactive: 0
CCc1cccc(CC)c1NC(=O)N1Cc2[nH]nc(NC(=O)c3ccc(N4CCN(C)CC4)cc3)c2C1 (2.5 µM) | inactive: 0 | inactive: 0 | inactive: 0 | inactive: 0 | inactive: 0 | inactive: 0 | inactive: 0 | inactive: 0 | inactive: 0 | inactive: 0 | inactive: 0 | inactive: 0 | inactive: 0 | inactive: 0 | inactive: 0 | inactive: 0 | inactive: 0 | inactive: 0 | inactive: 0 | inactive: 0
COc1cc2ncnc(Nc3ccccc3)c2cc1OC (10 µM) | inactive: 0 | inactive: 0 | inactive: 0 | inactive: 0 | inactive: 0 | inactive: 0 | inactive: 0 | inactive: 0 | inactive: 0 | inactive: 0 | inactive: 0 | inactive: 0 | inactive: 0 | inactive: 0 | inactive: 0 | inactive: 0 | active: 1 | inactive: 0 | inactive: 0 | inactive: 0
CN1C(=O)[C@@H](NC(=O)c2n[nH]c(Cc3ccccc3)n2)COc2ccccc21 (10 µM) | inactive: 0 | inactive: 0 | inactive: 0 | inactive: 0 | inactive: 0 | inactive: 0 | inactive: 0 | inactive: 0 | inactive: 0 | inactive: 0 | inactive: 0 | inactive: 0 | inactive: 0 | inactive: 0 | inactive: 0 | inactive: 0 | inactive: 0 | inactive: 0 | inactive: 0 | inactive: 0
Cc1cccc(-c2[nH]c(C(C)(C)C)nc2-c2ccc3nccnc3c2)n1 (10 µM) | inactive: 0 | inactive: 0 | inactive: 0 | inactive: 0 | inactive: 0 | inactive: 0 | inactive: 0 | inactive: 0 | inactive: 0 | inactive: 0 | inactive: 0 | inactive: 0 | inactive: 0 | inactive: 0 | inactive: 0 | inactive: 0 | inactive: 0 | inactive: 0 | inactive: 0 | inactive: 0
CN1CC[C@@H](c2c(O)cc(O)c3c(=O)cc(-c4ccc(C(F)(F)F)cc4Cl)oc23)[C@@H]1CO [Voruciclib (hydrochloride)] (10 µM) | inactive: 0 | inactive: 0 | inactive: 0 | inactive: 0 | inactive: 0 | inactive: 0 | inactive: 0 | inactive: 0 | inactive: 0 | inactive: 0 | inactive: 0 | inactive: 0 | inactive: 0 | inactive: 0 | inactive: 0 | inactive: 0 | inactive: 0 | inactive: 0 | inactive: 0 | inactive: 0

A draw from above in order of length of the SMILES, falling:
Compound | kinase-Nluc reporter destabilization hit call [1] | kinase-Nluc reporter destabilization hit call [2] | kinase-Nluc reporter destabilization hit call [3] | kinase-Nluc reporter destabilization hit call [4] | kinase-Nluc reporter destabilization hit call [5] | kinase-Nluc reporter destabilization hit call [6] | kinase-Nluc reporter destabilization hit call [7] | kinase-Nluc reporter destabilization hit call [8] | kinase-Nluc reporter destabilization hit call [9] | kinase-Nluc reporter destabilization hit call [10] | kinase-Nluc reporter destabilization hit call [11] | kinase-Nluc reporter destabilization hit call [12] | kinase-Nluc reporter destabilization hit call [13] | kinase-Nluc reporter destabilization hit call [14] | kinase-Nluc reporter destabilization hit call [15] | kinase-Nluc reporter destabilization hit call [16] | kinase-Nluc reporter destabilization hit call [17] | kinase-Nluc reporter destabilization hit call [18] | kinase-Nluc reporter destabilization hit call [19] | kinase-Nluc reporter destabilization hit call [20]
C=CC(=O)Nc1cccc(CNc2nc(Nc3ccc(N4CCN(C)CC4)cc3OC)ncc2Cl)c1 (10 µM) | inactive: 0 | inactive: 0 | inactive: 0 | inactive: 0 | inactive: 0 | inactive: 0 | inactive: 0 | inactive: 0 | inactive: 0 | inactive: 0 | inactive: 0 | inactive: 0 | inactive: 0 | inactive: 0 | inactive: 0 | inactive: 0 | inactive: 0 | inactive: 0 | inactive: 0 | inactive: 0
CS(=O)(=O)c1ccc(-c2cnc(N)c(-c3ccc(C(F)(F)F)nc3)c2)cc1 (10 µM) | inactive: 0 | inactive: 0 | inactive: 0 | inactive: 0 | inactive: 0 | inactive: 0 | inactive: 0 | inactive: 0 | inactive: 0 | inactive: 0 | inactive: 0 | inactive: 0 | inactive: 0 | inactive: 0 | inactive: 0 | inactive: 0 | inactive: 0 | inactive: 0 | inactive: 0 | inactive: 0
c1cc(NC2CCNCC2)nc(-c2cnc3ccccn23)c1 [IRAK inhibitor 1] (10 µM) | inactive: 0 | inactive: 0 | inactive: 0 | inactive: 0 | inactive: 0 | inactive: 0 | inactive: 0 | inactive: 0 | inactive: 0 | inactive: 0 | inactive: 0 | inactive: 0 | inactive: 0 | inactive: 0 | inactive: 0 | inactive: 0 | inactive: 0 | inactive: 0 | inactive: 0 | inactive: 0

From the supplement of paper PMC12823440, “Inhibitors supercharge kinase turnover through native proteolytic circuits” (Nature, 2025)
